The supplement of paper PMC8728848
The list shows a part of the results.

Key:
Assay in all cases: glycan array binding signal (z-score within array); higher = stronger binding
Settings in all cases: glycan notation: IUPAC condensed, linker removed
[1] = molecular target: Neu5Ac(a2-3)Gal(b1-4)GlcNAc(b1-3)Gal(b1-4)GlcNAc(b1-3)Gal(b1-4)GlcNAc
Summary of the method: (§1)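 Columns mapping to the same glycan were averaged after glycan names were converted to IUPAC-condensed notation. The data come from 3228 arrays in the Consortium for Functional Glycomics database, limited to those with an available protein sequence. Binding is reported as a within-array Z-score averaged across arrays of one protein sequence and across linkers.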

[2] = molecular target: Neu5Ac(a2-3)Gal(b1-4)GlcNAc(b1-3)Gal(b1-4)GlcNAc(b1-3)Gal(b1-4)GlcNAc(b1-2)Man(a1-3)[Neu5Ac(a2-3)Gal(b1-4)GlcNAc(b1-3)Gal(b1-4)GlcNAc(b1-3)Gal(b1-4)GlcNAc(b1-2)Man(a1-6)]GalNAc
Summary of the method: as §1

[3] = molecular target: Neu5Ac(a2-3)Gal(b1-4)GlcNAc(b1-3)Gal(b1-4)GlcNAc(b1-3)GalNAc
Summary of the method: as §1

[4] = molecular target: Neu5Ac(a2-3)Gal(b1-4)GlcNAc(b1-3)Gal(b1-4)GlcNAc(b1-3)[Neu5Ac(a2-3)Gal(b1-4)GlcNAc(b1-3)Gal(b1-4)GlcNAc(b1-6)]GalNAc
Summary of the method: as §1

[5] = molecular target: Neu5Ac(a2-3)Gal(b1-4)GlcNAc(b1-3)Gal(b1-4)GlcNAc(b1-6)[Gal(b1-3)]GalNAc
Summary of the method: as §1

[6] = molecular target: Neu5Ac(a2-3)Gal(b1-4)GlcNAc(b1-3)Gal(b1-4)[Fuc(a1-3)]GlcNAc
Summary of the method: as §1

[7] = molecular target: Neu5Ac(a2-3)Gal(b1-4)GlcNAc(b1-3)GalNAc
Summary of the method: as §1

[8] = molecular target: Neu5Ac(a2-3)Gal(b1-4)GlcNAc(b1-3)[Neu5Ac(a2-3)Gal(b1-4)GlcNAc(b1-6)]GalNAc
Summary of the method: as §1

[9] = molecular target: Neu5Ac(a2-3)Gal(b1-4)GlcNAc(b1-6)GalNAc
Summary of the method: as §1

[10] = molecular target: Neu5Ac(a2-3)Gal(b1-4)GlcNAc(b1-6)[Gal(b1-3)]GalNAc
Summary of the method: as §1

[11] = molecular target: Neu5Ac(a2-3)Gal(b1-4)GlcNAc(b1-6)[Neu5Ac(a2-3)Gal(b1-3)]GalNAc
Summary of the method: as §1

[12] = molecular target: Neu5Ac(a2-3)Gal(b1-4)GlcNAc6S
Summary of the method: as §1

[13] = molecular target: Neu5Ac(a2-3)Gal(b1-4)[Fuc(a1-3)]GlcNAc
Summary of the method: as §1

[14] = molecular target: Neu5Ac(a2-3)Gal(b1-4)[Fuc(a1-3)]GlcNAc(b1-2)Man
Summary of the method: as §1

[15] = molecular target: Neu5Ac(a2-3)Gal(b1-4)[Fuc(a1-3)]GlcNAc(b1-3)Gal
Summary of the method: as §1

[16] = molecular target: Neu5Ac(a2-3)Gal(b1-4)[Fuc(a1-3)]GlcNAc(b1-3)Gal(b1-4)GlcNAc
Summary of the method: as §1

[17] = molecular target: Neu5Ac(a2-3)Gal(b1-4)[Fuc(a1-3)]GlcNAc(b1-3)Gal(b1-4)[Fuc(a1-3)]GlcNAc(b1-3)Gal(b1-4)[Fuc(a1-3)]GlcNAc
Summary of the method: as §1

[18] = molecular target: Neu5Ac(a2-3)Gal(b1-4)[Fuc(a1-3)]GlcNAc(b1-3)GalNAc
Summary of the method: as §1

[19] = molecular target: Neu5Ac(a2-3)Gal(b1-4)[Fuc(a1-3)]GlcNAc(b1-6)[Gal(b1-3)]GalNAc
Summary of the method: as §1

[20] = molecular target: Neu5Ac(a2-3)Gal(b1-4)[Fuc(a1-3)]GlcNAc(b1-6)[Neu5Ac(a2-3)Gal(b1-3)]GalNAc
Summary of the method: as §1

[21] = molecular target: Neu5Ac(a2-3)Gal(b1-4)[Fuc(a1-3)]GlcNAc6S
Summary of the method: as §1

[22] = molecular target: Neu5Ac(a2-3)Gal6S(b1-4)GlcNAc
Summary of the method: as §1

[23] = molecular target: Neu5Ac(a2-3)Gal6S(b1-4)[Fuc(a1-3)]GlcNAc
Summary of the method: as §1

Neu5Ac(a2-3)GalNAc = molecular target: Neu5Ac(a2-3)GalNAc
Summary of the method: as §1

[24] = molecular target: Neu5Ac(a2-3)GalNAc(b1-4)GlcNAc
Summary of the method: as §1

[25] = molecular target: Neu5Ac(a2-3)[GalNAc(b1-4)]Gal(b1-4)Glc
Summary of the method: as §1

[26] = molecular target: Neu5Ac(a2-3)[GalNAc(b1-4)]Gal(b1-4)GlcNAc
Summary of the method: as §1

[27] = molecular target: Neu5Ac(a2-3)[GalNAc(b1-4)]Gal(b1-4)GlcNAc(b1-3)GalNAc
Summary of the method: as §1

[28] = molecular target: Neu5Ac(a2-3)[Neu5Ac(a2-6)]GalNAc
Summary of the method: as §1

Neu5Ac(a2-6)Gal = molecular target: Neu5Ac(a2-6)Gal
Summary of the method: as §1

[29] = molecular target: Neu5Ac(a2-6)Gal(b1-3)GlcNAc(b1-3)[Gal(b1-4)GlcNAc(b1-6)]Gal(b1-4)Glc
Summary of the method: as §1

Neu5Ac(a2-6)Gal(b1-4)Glc = molecular target: Neu5Ac(a2-6)Gal(b1-4)Glc
Summary of the method: as §1

[30] = molecular target: Neu5Ac(a2-6)Gal(b1-4)GlcNAc
Summary of the method: as §1

[31] = molecular target: Neu5Ac(a2-6)Gal(b1-4)GlcNAc(b1-2)Man
Summary of the method: as §1

[32] = molecular target: Neu5Ac(a2-6)Gal(b1-4)GlcNAc(b1-2)Man(a1-3)Man(b1-4)GlcNAc(b1-4)GlcNAc
Summary of the method: as §1

[33] = molecular target: Neu5Ac(a2-6)Gal(b1-4)GlcNAc(b1-2)Man(a1-3)[Gal(b1-4)GlcNAc(b1-2)Man(a1-6)]Man(b1-4)GlcNAc(b1-4)GlcNAc
Summary of the method: as §1

[34] = molecular target: Neu5Ac(a2-6)Gal(b1-4)GlcNAc(b1-2)Man(a1-3)[GlcNAc(b1-2)Man(a1-6)]Man(b1-4)GlcNAc(b1-4)GlcNAc
Summary of the method: as §1

[35] = molecular target: Neu5Ac(a2-6)Gal(b1-4)GlcNAc(b1-2)Man(a1-3)[GlcNAc(b1-4)][Neu5Ac(a2-6)Gal(b1-4)GlcNAc(b1-2)Man(a1-6)]Man(b1-4)GlcNAc(b1-4)GlcNAc
Summary of the method: as §1

B1: GS13971A-bth-447-22-447 (Bacteroides thetaiotaomicron) (protein)
chain: EDVDNERSKGMFSASQSGFSTIEVYDLGPLNKIDLSIAKAGLEDTGGTVTFSVEQSLLDSLNNADGTSYQLLPPECYTIENATYSVSPGGDRRVTGGSLVYDPHKIYNLCGFDELKYVLPLRVSSTGTPMNSDRTATLYGFIVKEAIVRLASTGGDFVVEGGTTTSPMNLDTEISFENEWDLTTSFATKGADYVDNYNSANSTYYIPLPSDFYTLPDVTIAKGKTTGGSAISLLGETLPPGNYLLPVSLGGLSGQGDASINIDKETVANYFVIKQGGPINRDHWTVTANTEEKTGEVSAAYPHNGQTISLIDGEINTFWHSKWQGGEVAPPYEIILDMGKENSVSQLGLIARQNALTSMNLEIYAGDDGETWNLIGKYFFDGSIKTEQMVPVKACDARWIRIYIPTLGSGSSVGHLAEIYVYGTDK
glycan array binding signal (z-score) [1]: -0.509
glycan array binding signal (z-score) [2]: 2.81
glycan array binding signal (z-score) [3]: -0.298
glycan array binding signal (z-score) [4]: -1.13
glycan array binding signal (z-score) [5]: -1.45
glycan array binding signal (z-score) [6]: 0.405
glycan array binding signal (z-score) [7]: -0.583
glycan array binding signal (z-score) [8]: -0.884
glycan array binding signal (z-score) [9]: -1.03
glycan array binding signal (z-score) [10]: 0.358
glycan array binding signal (z-score) [11]: -0.5
glycan array binding signal (z-score) [12]: -1.5
glycan array binding signal (z-score) [13]: 0.375
glycan array binding signal (z-score) [14]: -0.742
glycan array binding signal (z-score) [15]: -0.124
glycan array binding signal (z-score) [16]: 0.574
glycan array binding signal (z-score) [17]: -0.587
glycan array binding signal (z-score) [18]: 1.95
glycan array binding signal (z-score) [19]: 0.159
glycan array binding signal (z-score) [20]: 0.222
glycan array binding signal (z-score) [21]: -0.912
glycan array binding signal (z-score) [22]: 0.523
glycan array binding signal (z-score) [23]: 0.166
glycan array binding signal (z-score) (Neu5Ac(a2-3)GalNAc): 1.35
glycan array binding signal (z-score) [24]: -0.838
glycan array binding signal (z-score) [25]: 0.396
glycan array binding signal (z-score) [26]: -0.552
glycan array binding signal (z-score) [27]: 0.08
glycan array binding signal (z-score) [28]: 0.216
glycan array binding signal (z-score) (Neu5Ac(a2-6)Gal): 0.263
glycan array binding signal (z-score) [29]: 0.019
glycan array binding signal (z-score) (Neu5Ac(a2-6)Gal(b1-4)Glc): 0.196
glycan array binding signal (z-score) [30]: -0.188
glycan array binding signal (z-score) [31]: 0.996
glycan array binding signal (z-score) [32]: -0.975
glycan array binding signal (z-score) [33]: -0.594
glycan array binding signal (z-score) [34]: -0.032
glycan array binding signal (z-score) [35]: 0.18
